# According to doi:10.1101/2020.11.17.386672:
# T1: HDA15 (endogenous) (Arabidopsis thaliana (endogenous in Col-0)) (UniProt Q8GXJ1)
# T1 sequence: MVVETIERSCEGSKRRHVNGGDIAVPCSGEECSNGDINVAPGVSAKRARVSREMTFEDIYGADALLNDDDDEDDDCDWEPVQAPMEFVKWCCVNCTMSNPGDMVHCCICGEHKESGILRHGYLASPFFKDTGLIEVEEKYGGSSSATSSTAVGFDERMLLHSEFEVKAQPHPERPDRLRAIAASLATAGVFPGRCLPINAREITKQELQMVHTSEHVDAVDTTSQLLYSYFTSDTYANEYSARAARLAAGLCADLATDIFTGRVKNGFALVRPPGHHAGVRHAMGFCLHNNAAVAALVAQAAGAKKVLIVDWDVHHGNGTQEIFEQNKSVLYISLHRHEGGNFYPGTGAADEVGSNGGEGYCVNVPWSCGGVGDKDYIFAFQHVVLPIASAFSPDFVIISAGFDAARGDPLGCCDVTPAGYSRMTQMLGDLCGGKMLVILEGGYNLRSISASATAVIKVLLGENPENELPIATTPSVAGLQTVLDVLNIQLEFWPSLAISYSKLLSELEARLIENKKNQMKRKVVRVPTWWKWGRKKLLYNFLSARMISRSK
# Molecular target: T1, HDA15 (endogenous) (Arabidopsis thaliana (endogenous in Col-0))
# Experiment: affinity purification with mass spectrometry
row,binding,Binder
1,binds,"SET DOMAIN PROTEIN 16 (SDG16) (protein, UniProt Q9SUE7 1-1027) MIIKRKFKTQIPSLERCKLGNESRKKKRKLNLGGGGYYYPLNLLGEIAAGIVPGNGRNGFSASWCTEVTKPVEVEESLSKRRSDSGTVRDSPPAEVSRPPLVRTSRGRIQVLPSRFNDSVLDNWRKDSKSDCDLEEEEIECRNEKVVSFRVPKATNLKSKELDRKSKYSALCKEERFHEQHNDEARARVDEKLPNKKGTFGPENFYSGDLVWAKSGRNEPFWPAIVIDPMTQAPELVLRSCIPDAACVVFFGHSGNENERDYAWVRRGMIFPFVDYVARFQEQPELQGCKPGNFQMALEEAFLADQGFTEKLMHDIHLAAGNSTFDDSFYRWIQETAVSNQELNNNAPRQGLLKKHRNPLACAGCETVISFEMAKKMKDLIPGDQLLCKPCSRLTKSKHICGICKKIRNHLDNKSWVRCDGCKVRIHAECDQISDRHLKDLRETDYYCPTCRAKFNFDLSDSEKQNSKSKVAKGDGQMVLPDKVIVVCAGVEGVYFPRLHLVVCKCGSCGPKKKALSEWERHTGSKSKNWKTSVKVKSSKLALEDWMMNLAELHANATAAKVPKRPSIKQRKQRLLAFLSETYEPVNAKWTTERCAVCRWVEDWDYNKIIICNRCQIAVHQECYGARHVRDFTSWVCKACERPDIKRECCLCPVKGGALKPTDVETLWVHVTCAWFQPEVCFASEEKMEPAVGILSIPSTNFVKICVICKQIHGSCTQCCKCSTYYHAMCASRAGYRMELHCLEKNGQQITKMVSYCAYHRAPNPDNVLIIQTPSGAFSAKSLVQNKKKGGSRLISLIREDDEAPAENTITCDPFSAARCRVFKRKINSKKRIEEEAIPHHTRGPRHHASAAIQTLNTFRHVPEEPKSFSSFRERLHHLQRTEMDRVCFGRSGIHGWGLFARRNIQEGEMVLEYRGEQVRGSIADLREARYRRVGKDCYLFKISEEVVVDATDKGNIARLINHSCTPNCYARIMSVGDEESRIVLIAKANVAVGEELTYDYLFDPDEAEELKVPCLCKAPNCRKFMN"
2,binds,"CELL DIVISION CYCLE5 (CDC5) (protein, UniProt P92948 1-844) MRIMIKGGVWKNTEDEILKAAVMKYGKNQWARISSLLVRKSAKQCKARWYEWLDPSIKKTEWTREEDEKLLHLAKLLPTQWRTIAPIVGRTPSQCLERYEKLLDAACTKDENYDAADDPRKLRPGEIDPNPEAKPARPDPVDMDEDEKEMLSEARARLANTRGKKAKRKAREKQLEEARRLASLQKRRELKAAGIDGRHRKRKRKGIDYNAEIPFEKRAPAGFYDTADEDRPADQVKFPTTIEELEGKRRADVEAHLRKQDVARNKIAQRQDAPAAILQANKLNDPEVVRKRSKLMLPPPQISDHELEEIAKMGYASDLLAENEELTEGSAATRALLANYSQTPRQGMTPMRTPQRTPAGKGDAIMMEAENLARLRDSQTPLLGGENPELHPSDFTGVTPRKKEIQTPNPMLTPSMTPGGAGLTPRIGLTPSRDGSSFSMTPKGTPFRDELHINEDMDMHESAKLERQRREEARRSLRSGLTGLPQPKNEYQIVAQPPPEESEEPEEKIEEDMSDRIAREKAEEEARQQALLKKRSKVLQRDLPRPPAASLAVIRNSLLSADGDKSSVVPPTPIEVADKMVREELLQLLEHDNAKYPLDDKAEKKKGAKNRTNRSASQVLAIDDFDENELQEADKMIKEEGKFLCVSMGHENKTLDDFVEAHNTCVNDLMYFPTRSAYELSSVAGNADKVAAFQEEMENVRKKMEEDEKKAEHMKAKYKTYTKGHERRAETVWTQIEATLKQAEIGGTEVECFKALKRQEEMAASFRKKNLQEEVIKQKETESKLQTRYGNMLAMVEKAEEIMVGFRAQALKKQEDVEDSHKLKEAKLATGEEEDIAIAMEASA"
3,binds,"WRKY63 (protein, UniProt Q9C6H5 1-241) MFSNIDHKAVAALLHGQGCANILKTVLDNCKVSSVSTEPLINTILDSFSLALSSVNSPNRQPHHESSSRDMAGLVPQRSSKKKICGVKGLEIYRDDSPNPRLDDGFTWRKYGQKTIKTSLYQRCYYRCAYAKDQNCYATKRVQMIQDSPPVYRTTYLGQHTCKAFGVHDNTYGSEMINFDQVVSESVMRQLATIGEQAVLMEDEANHIMNQEYDINDYLVDDEVFWGNEFPLFSSEDLMLF"
4,binds,"SU(VAR)3-9-RELATED PROTEIN 5 (SUVR5) (protein, UniProt O64827 1-1382) MEVKMDELVLDVDVEEATGSELLVKSEPEADLNAVKSSTDLVTVTGPIGKNGEGESSPSEPKWLQQDEPIALWVKWRGKWQAGIRCAKADWPLTTLRGKPTHDRKKYCVIFFPHTKNYSWADMQLVRSINEFPDPIAYKSHKIGLKLVKDLTAARRYIMRKLTVGMFNIVDQFPSEVVSEAARDIIIWKEFAMEATRSTSYHDLGIMLVKLHSMILQRYMDPIWLENSFPLWVQKCNNAVNAESIELLNEEFDNCIKWNEVKSLSESPMQPMLLSEWKTWKHDIAKWFSISRRGVGEIAQPDSKSVFNSDVQASRKRPKLEIRRAETTNATHMESDTSPQGLSAIDSEFFSSRGNTNSPETMKEENPVMNTPENGLDLWDGIVVEAGGSQFMKTKETNGLSHPQDQHINESVLKKPFGSGNKSQQCIAFIESKGRQCVRWANEGDVYCCVHLASRFTTKSMKNEGSPAVEAPMCGGVTVLGTKCKHRSLPGFLYCKKHRPHTGMVKPDDSSSFLVKRKVSEIMSTLETNQCQDLVPFGEPEGPSFEKQEPHGATSFTEMFEHCSQEDNLCIGSCSENSYISCSEFSTKHSLYCEQHLPNWLKRARNGKSRIISKEVFVDLLRGCLSREEKLALHQACDIFYKLFKSVLSLRNSVPMEVQIDWAKTEASRNADAGVGEFLMKLVSNERERLTRIWGFATGADEEDVSLSEYPNRLLAITNTCDDDDDKEKWSFSGFACAICLDSFVRRKLLEIHVEERHHVQFAEKCMLLQCIPCGSHFGDKEQLLVHVQAVHPSECKSLTVASECNLTNGEFSQKPEAGSSQIVVSQNNENTSGVHKFVCKFCGLKFNLLPDLGRHHQAEHMGPSLVGSRGPKKGIRFNTYRMKSGRLSRPNKFKKSLGAVSYRIRNRAGVNMKRRMQGSKSLGTEGNTEAGVSPPLDDSRNFDGVTDAHCSVVSDILLSKVQKAKHRPNNLDILSAARSACCRVSVETSLEAKFGDLPDRIYLKAAKLCGEQGVQVQWHQEGYICSNGCKPVKDPNLLHPLIPRQENDRFGIAVDAGQHSNIELEVDECHCIMEAHHFSKRPFGNTAVLCKDISFGKESVPICVVDDDLWNSEKPYEMPWECFTYVTNSILHPSMDLVKENLQLRCSCRSSVCSPVTCDHVYLFGNDFEDARDIYGKSMRCRFPYDGKQRIILEEGYPVYECNKFCGCSRTCQNRVLQNGIRAKLEVFRTESKGWGLRACEHILRGTFVCEYIGEVLDQQEANKRRNQYGNGDCSYILDIDANINDIGRLMEEELDYAIDATTHGNISRFINHSCSPNLVNHQVIVESMESPLAHIGLYASMDIAAGEEITRDYGRRPVPSEQENEHPCHCKATNCRGLLS"
5,binds,"MAC3B (endogenous) (protein, UniProt O22785 1-525) MNCAISGEVPVEPVVSTKSGLLFERRLIERHISDYGKCPVTGEPLTIDDIVPIKTGEIIKPKTLHTASIPGLLGTFQNEWDGLMLSNFALEQQLHTARQELSHALYQHDSACRVIARLKKERDEARQLLAEVERHIPAAPEAVTANAALSNGKRAAVDEELGPDAKKLCPGISAEIITELTDCNAALSQKRKKRQIPQTLASIDTLERFTQLSSHPLHKTNKPGICSMDILHSKDVIATGGVDATAVLFDRPSGQILSTLTGHSKKVTSVKFVGDSDLVLTASADKTVRIWRNPGDGNYACGYTLNDHSAEVRAVTVHPTNKYFVSASLDGTWCFYDLSSGSCLAQVSDDSKNVDYTAAAFHPDGLILGTGTSQSVVKIWDVKSQANVAKFDGHTGEVTAISFSENGYFLATAAEDGVRLWDLRKLRNFKSFLSADANSVEFDPSGSYLGIAASDIKVYQTASVKAEWNLIKTLPDLSGTGKATCVKFGSDAQYVAVGSMDRNLRIFGLPGDEKANVDDDSAQDS"
6,binds,"MYB2 (protein, UniProt Q39028 1-273) MEDYERINSNSPTHEEDSDVRKGPWTEEEDAILVNFVSIHGDARWNHIARSSGLKRTGKSCRLRWLNYLRPDVRRGNITLEEQFMILKLHSLWGNRWSKIAQYLPGRTDNEIKNYWRTRVQKQAKHLRCDVNSNLFKETMRNVWMPRLVERINAQSLPTTCEQVESMITDPSQPVNEPSPVEPGFVQFSQNHHQQFVPATELSATSSNSPAETFSDVRGGVVNGSGYDPSGQTGFGEFNDWGCVGGDNMWTDEESFWFLQDQFCPDTTSYSYN"

# Results are given in words; binding and its absence hold for the method and conditions named. In cells and extracts the contact can be indirect. A yes stands for co-enrichment or nearness to the bait. Other partners may have been found.
